# The other results are listed elsewhere or left out.
# What was measured:
# Test in all cases: glycan array binding signal (z-score within array); higher = stronger binding
# Conditions in all cases: glycan notation: IUPAC condensed, linker removed
# [1] = biological target: Neu5Ac(a2-6)Gal(b1-3)GlcNAc(b1-3)[Gal(b1-4)GlcNAc(b1-6)]Gal(b1-4)Glc
# Summary of the method: (§1)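 The binding signal is a Z-score computed within each array and averaged over linkers. Arrays of the same protein sequence at different concentrations or buffers were also averaged together. Data originate from 3228 arrays in the Consortium for Functional Glycomics database, kept only where the protein sequence was available.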
# Neu5Ac(a2-6)Gal(b1-4)Glc = biological target: Neu5Ac(a2-6)Gal(b1-4)Glc
# Summary of the method: as §1
# [2] = biological target: Neu5Ac(a2-6)Gal(b1-4)GlcNAc
# Summary of the method: as §1
# [3] = biological target: Neu5Ac(a2-6)Gal(b1-4)GlcNAc(b1-2)Man
# Summary of the method: as §1
# [4] = biological target: Neu5Ac(a2-6)Gal(b1-4)GlcNAc(b1-2)Man(a1-3)Man(b1-4)GlcNAc(b1-4)GlcNAc
# Summary of the method: as §1
# [5] = biological target: Neu5Ac(a2-6)Gal(b1-4)GlcNAc(b1-2)Man(a1-3)[Gal(b1-4)GlcNAc(b1-2)Man(a1-6)]Man(b1-4)GlcNAc(b1-4)GlcNAc
# Summary of the method: as §1
# [6] = biological target: Neu5Ac(a2-6)Gal(b1-4)GlcNAc(b1-2)Man(a1-3)[GlcNAc(b1-4)][Neu5Ac(a2-6)Gal(b1-4)GlcNAc(b1-2)Man(a1-6)]Man(b1-4)GlcNAc(b1-4)GlcNAc
# Summary of the method: as §1
# [7] = biological target: Neu5Ac(a2-6)Gal(b1-4)GlcNAc(b1-2)Man(a1-3)[Man(a1-6)]Man(b1-4)GlcNAc(b1-4)GlcNAc
# Summary of the method: as §1
# [8] = biological target: Neu5Ac(a2-6)Gal(b1-4)GlcNAc(b1-2)Man(a1-3)[Neu5Ac(a2-3)Gal(b1-4)GlcNAc(b1-2)Man(a1-6)]Man(b1-4)GlcNAc(b1-4)GlcNAc
# Summary of the method: as §1
# [9] = biological target: Neu5Ac(a2-6)Gal(b1-4)GlcNAc(b1-2)Man(a1-3)[Neu5Ac(a2-6)Gal(b1-4)GlcNAc(b1-2)Man(a1-6)]Man(b1-4)GlcNAc(b1-4)GlcNAc
# Summary of the method: as §1
# [10] = biological target: Neu5Ac(a2-6)Gal(b1-4)GlcNAc(b1-2)Man(a1-3)[Neu5Ac(a2-6)Gal(b1-4)GlcNAc(b1-2)Man(a1-6)]Man(b1-4)GlcNAc(b1-4)[Fuc(a1-6)]GlcNAc
# Summary of the method: as §1
# [11] = biological target: Neu5Ac(a2-6)Gal(b1-4)GlcNAc(b1-2)Man(a1-6)Man(b1-4)GlcNAc(b1-4)GlcNAc
# Summary of the method: as §1
# [12] = biological target: Neu5Ac(a2-6)Gal(b1-4)GlcNAc(b1-2)Man(a1-6)[Gal(b1-4)GlcNAc(b1-2)Man(a1-3)]Man(b1-4)GlcNAc(b1-4)GlcNAc
# Summary of the method: as §1
# [13] = biological target: Neu5Ac(a2-6)Gal(b1-4)GlcNAc(b1-2)Man(a1-6)[GlcNAc(b1-2)Man(a1-3)]Man(b1-4)GlcNAc(b1-4)GlcNAc
# Summary of the method: as §1
# [14] = biological target: Neu5Ac(a2-6)Gal(b1-4)GlcNAc(b1-2)Man(a1-6)[Man(a1-3)]Man(b1-4)GlcNAc(b1-4)GlcNAc
# Summary of the method: as §1
# [15] = biological target: Neu5Ac(a2-6)Gal(b1-4)GlcNAc(b1-2)[Neu5Ac(a2-6)Gal(b1-4)GlcNAc(b1-4)]Man(a1-3)[GlcNAc(b1-4)][Neu5Ac(a2-6)Gal(b1-4)GlcNAc(b1-2)[Neu5Ac(a2-6)Gal(b1-4)GlcNAc(b1-6)]Man(a1-6)]Man(b1-4)GlcNAc(b1-4)GlcNAc
# Summary of the method: as §1
# [16] = biological target: Neu5Ac(a2-6)Gal(b1-4)GlcNAc(b1-2)[Neu5Ac(a2-6)Gal(b1-4)GlcNAc(b1-4)]Man(a1-3)[GlcNAc(b1-4)][Neu5Ac(a2-6)Gal(b1-4)GlcNAc(b1-4)Man(a1-6)]Man(b1-4)GlcNAc(b1-4)GlcNAc
# Summary of the method: as §1
# [17] = biological target: Neu5Ac(a2-6)Gal(b1-4)GlcNAc(b1-2)[Neu5Ac(a2-6)Gal(b1-4)GlcNAc(b1-6)]Man(a1-6)[Neu5Ac(a2-6)Gal(b1-4)GlcNAc(b1-2)Man(a1-3)][GlcNAc(b1-4)]Man(b1-4)GlcNAc(b1-4)GlcNAc
# Summary of the method: as §1
# [18] = biological target: Neu5Ac(a2-6)Gal(b1-4)GlcNAc(b1-3)Gal(b1-3)GlcNAc
# Summary of the method: as §1
# [19] = biological target: Neu5Ac(a2-6)Gal(b1-4)GlcNAc(b1-3)Gal(b1-4)GlcNAc
# Summary of the method: as §1
# [20] = biological target: Neu5Ac(a2-6)Gal(b1-4)GlcNAc(b1-3)Gal(b1-4)GlcNAc(b1-2)Man(a1-3)[Neu5Ac(a2-6)Gal(b1-4)GlcNAc(b1-3)Gal(b1-4)GlcNAc(b1-2)Man(a1-6)]GalNAc
# Summary of the method: as §1
# [21] = biological target: Neu5Ac(a2-6)Gal(b1-4)GlcNAc(b1-3)Gal(b1-4)GlcNAc(b1-3)Gal(b1-4)GlcNAc
# Summary of the method: as §1
# [22] = biological target: Neu5Ac(a2-6)Gal(b1-4)GlcNAc(b1-3)Gal(b1-4)GlcNAc(b1-3)Gal(b1-4)GlcNAc(b1-2)Man(a1-3)[Neu5Ac(a2-6)Gal(b1-4)GlcNAc(b1-3)Gal(b1-4)GlcNAc(b1-3)Gal(b1-4)GlcNAc(b1-2)Man(a1-6)]GalNAc
# Summary of the method: as §1
binder,measurement,setting,value
Lb MiSSP8 (Laccaria bicolor) (protein) MYFHTLFACATLMLITTAHASPTVINSLDSRKADLNGDVEARHAADWRRDSDWRRDSDWRRDSDWRRDSD,glycan array binding signal (z-score),[1],-0.399
same,glycan array binding signal (z-score),Neu5Ac(a2-6)Gal(b1-4)Glc,-0.664
same,glycan array binding signal (z-score),[2],-0.623
same,glycan array binding signal (z-score),[3],-0.578
same,glycan array binding signal (z-score),[4],-0.426
same,glycan array binding signal (z-score),[5],1.39
same,glycan array binding signal (z-score),[6],-0.647
same,glycan array binding signal (z-score),[7],-0.226
same,glycan array binding signal (z-score),[8],-0.606
same,glycan array binding signal (z-score),[9],0.529
same,glycan array binding signal (z-score),[10],-0.157
same,glycan array binding signal (z-score),[11],-0.399
same,glycan array binding signal (z-score),[12],-0.606
same,glycan array binding signal (z-score),[13],-0.668
same,glycan array binding signal (z-score),[14],-0.385
same,glycan array binding signal (z-score),[15],-0.744
same,glycan array binding signal (z-score),[16],-0.757
same,glycan array binding signal (z-score),[17],-0.675
same,glycan array binding signal (z-score),[18],-0.53
same,glycan array binding signal (z-score),[19],-0.971
same,glycan array binding signal (z-score),[20],-0.357
same,glycan array binding signal (z-score),[21],0.236
same,glycan array binding signal (z-score),[22],2.23

# Taken from the results shown (2 entries):
binder,measurement,setting,value
Lb MiSSP8 (Laccaria bicolor) (protein) MYFHTLFACATLMLITTAHASPTVINSLDSRKADLNGDVEARHAADWRRDSDWRRDSDWRRDSDWRRDSD,glycan array binding signal (z-score),[15],-0.744
same,glycan array binding signal (z-score),[16],-0.757

# Reference: the supplement of paper PMC8728848
